According to PubChem BioAssay AID624291 (National Center for Advancing Translational Sciences (NCATS), 2012):
Hit rate of the full screen: of about 350,000 compounds, about 220 (0.063%) were called active. This list was built around the results that the source calls inconclusive (neither active nor inactive); the mix of calls is not that of the screen. Calls come from the whole dose curve; as a rule, active = well fitted activation curve with a large enough effect; inconclusive = small, poorly fitted or top-dose-only effect; inactive = no such curve, though single readings can be large or run the other way. Potencies beside an inconclusive call are fits to weak or partial responses and may not hold up.

Test: qHTS for Activators of Integrin-Mediated Alleviation for Muscular Dystrophy; note: nearly all actives have a fitted effect of over 60% in size;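 for activation: 100% = response of the positive control SU9516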
Details: alpha7betagal myoblasts, beta-gal FDG fluorescence, 48 h; activation: at 38.3 µM (top of the series)
In short: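 alpha7betagal+/- myoblasts (passage 13, 250/well) treated 48 h at 37C with compounds at 1:260 dilution of DMSO stock. Lysed, then beta-galactosidase activity read as FDG fluorescence (ex 480/em 540) after 30 min, with pre-read for autofluorescence.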
Potency is the fitted concentration of half-maximal effect.

Row | Compound | Potency | activation
1 | CC1CCc2cc(F)ccc2N1C(=O)c1ccc2c(c1)OCO2 (stereo unspecified) | inconclusive: 5.01 µM [activator, single point] | –
2 | CCc1ccc2nc(SCC(=O)Nc3ccccc3N3CCOCC3)c(C#N)cc2c1 | – | inactive: -35.8%
3 | Cc1nc(C)c(C(=O)O)s1 | inconclusive: 3.98 µM [activator, full curve, poor fit] | –
4 | CC(NC(=O)c1cc(F)c(F)cc1Cl)C1CC2CCC1C2 (stereo unspecified) | inconclusive: 1.12 µM [activator, partial curve, poor fit] | –
5 | COc1ccc(/C(C)=N/N2C(C)CCCC2C)c(OC)c1 (stereo unspecified) | inconclusive: 5.01 µM [activator, single point] | –
6 | Cn1nc(C(=O)OCC(=O)Nc2cccc(S(=O)(=O)N3CCCC3)c2)c2ccccc2c1=O | inconclusive: 1.12 µM [activator, partial curve, poor fit] | –
7 | Cc1ccc(NCc2nnc3n2CCCCC3)c(C)c1 | inconclusive: 28.2 µM [activator, single point] | –
8 | Cc1ccccc1CSCC(=O)Nc1ccccc1Br | inconclusive: 28.2 µM [activator, single point] | –
9 | CCN1/C(=C/c2ccc3ccccc3[n+]2CC)C=Cc2ccccc21 | – | inconclusive: -56.3% [activator]
10 | O=C(Nc1ccc(Cl)cc1Cl)Nn1cnnc1 | inconclusive: 1.41 µM [activator, partial curve, poor fit] | –
11 | Clc1ccc(SCc2cn3ccccc3n2)cc1 | – | inactive: -1.62%
12 | O=c1[nH]c(NCCO)nc2c1C1(CCCC1)Cc1ccccc1-2 | – | inactive: -20%
13 | CC(C)CC(=O)N1CCC(N2CCN(c3ccccc3)CC2)CC1 | – | inactive: -20.7%
14 | COc1ccc(Oc2coc3c(CN(C)C)c(O)ccc3c2=O)cc1 | – | inactive: 24.6%
15 | Cn1c(=O)c2c(nc(Cl)n2CCOc2ccccc2)n(C)c1=O | – | inactive: 0%
16 | Cc1cc(C)c(S(=O)(=O)Nc2ccncc2)cc1C | inconclusive: 7.08 µM [activator, partial curve, poor fit] | –
17 | N#Cc1nc(-c2cccs2)oc1N1CCN(c2ccccc2)CC1 | inconclusive: 2.82 µM [activator, single point] | –
18 | O=C(CSc1n[nH]c(-c2ccccc2)n1)Nc1ncccn1 | – | inactive: 4.79%
19 | COc1ccccc1C(=O)Nc1ccc2c(c1)nc(CN1CCN(C(C)=O)CC1)n2C | inconclusive: 3.55 µM [activator, full curve, poor fit] | –
20 | Cc1nc(N)nc(N/N=C/c2ccccc2)n1 | inconclusive: 28.2 µM [activator, single point] | –
21 | CCCCOC(=O)c1nc[nH]c1C(=O)OCCCC | inconclusive: 2.82 µM [activator, partial curve, poor fit] | –
22 | C=CCn1c(SCC(=O)Nc2ccccc2-c2ccccc2)nc2cc(C(=O)O)ccc2c1=O | inconclusive: 1 µM [activator, full curve, poor fit] | –
23 | CCn1c(C(=O)N2CCC(C(=O)NCCCSC3CCCCC3)CC2)cc2sccc21 | – | inactive: -13%
24 | Cc1ccc(C)c(OCCCCN2CCNCC2)c1C | – | inactive: -34.6%

Row | Compound | Potency | activation
25 | CN(Cc1ccccc1)C(=O)c1oc(=O)c2ccccc2c1-c1ccccc1 | inconclusive: 22.4 µM [activator, single point] | –
26 | Cc1ccc(C)c(NC(=S)NNC(=O)c2csc3c2CCCC3)c1 | – | inactive: -4.57%
27 | CC1c2cc3c(cc2CCN1CC(=O)Nc1ccc(S(=O)(=O)N2CCCC2)cc1)OCCCO3 (stereo unspecified) | inconclusive: 11.2 µM [activator, single point] | –
28 | Cn1c(COc2ccc([N+](=O)[O-])cc2)nnc1SCC(=O)NCC1CCCO1 (stereo unspecified) | inconclusive: 3.55 µM [activator, full curve, poor fit] | –
29 | Cn1c(N)c(C(=O)COC(=O)c2ccccc2NCc2ccco2)c(=O)n(C)c1=O | inconclusive: 0.501 µM [activator, full curve, poor fit] | –
30 | O=C(NCc1ccccc1F)C1CCN(C(=O)NCc2ccccc2)CC1 | inconclusive: 10 µM [activator, partial curve, poor fit] | –
31 | Nc1nnn(CC(=O)N/N=C/c2ccccc2)n1 | inconclusive: 3.16 µM [activator, single point] | –
32 | CCC(C(=O)NC1CC(C)(C)NC(C)(C)C1)c1ccccc1 (stereo unspecified) | inconclusive: 10 µM [activator, single point] | –
33 | COC(=O)c1ccc(C(=O)OC)c(NC(=S)N2CC(C)CC(C)C2)c1 (stereo unspecified) | inconclusive: 2.82 µM [activator, partial curve, poor fit] | –
34 | COc1ccc(N2CCN(CCCn3c(=S)[nH]c4ccccc4c3=O)CC2)cc1 | – | inactive: 5.04%
35 | CSc1cccc(NC(=S)N(CCCN2CCC(C)CC2)Cc2cccs2)c1 | – | inactive: -50.9%
36 | CCOC(=O)C1(CC2CCCCO2)CCN(S(=O)(=O)c2cc(C)cs2)CC1 (stereo unspecified) | inconclusive: 28.2 µM [activator, single point] | –
37 | Oc1cccnc1SCc1ccccc1 | – | inactive: 24.7%
38 | COCC1CCCN(Cc2nc(-c3ccc4c(c3)OCO4)no2)C1 (stereo unspecified) | inconclusive: 28.2 µM [activator, single point] | –
39 | COC(=O)C1=C(C)N(Cc2ccccc2)C(=NCC(C)C)N[C@H]1c1cccc(C(F)(F)F)c1 | – | inactive: -39.9%
40 | COc1ccc(CNC(=O)[C@H](C)N2C(=O)N3CCc4c([nH]c5ccc(OC)cc45)[C@@]3(C)C2=O)cc1 | – | inactive: -8.6%
41 | COc1cc(/C=C/C(=O)OCC(=O)N2CCN(S(=O)(=O)c3ccc(C)cc3C)CC2)ccc1OC(F)F | inconclusive: 8.91 µM [activator, partial curve, poor fit] | –
42 | CCOc1ccccc1NC(=O)CSc1nnc(CNC(=O)c2c(F)cccc2Cl)o1 | inconclusive: 3.55 µM [activator, partial curve, poor fit] | –
43 | O=C(O)c1cccc(NC(=O)c2cn(-c3ccccc3)nc2-c2ccc([N+](=O)[O-])cc2)c1 | inconclusive: 28.2 µM [activator, single point] | –
44 | O=C(Nc1ccccc1O)C(c1ccccc1)c1ccccc1 | – | inactive: -32.9%
45 | Clc1ccc2nc(-c3ccc(Cl)nc3)[nH]c2c1 | inconclusive: 0.562 µM [activator, full curve, poor fit] | –
46 | N#Cc1ccccc1OCC(=O)N1CCN(S(=O)(=O)c2ccc(Cl)cc2)CC1 | inconclusive: 2.82 µM [activator, partial curve, poor fit] | –
47 | CC1(C)Oc2ccc3ccc(=O)oc3c2-c2cn[nH]c21 | inconclusive: 0.447 µM [activator, full curve, poor fit] | –
48 | Cc1ccc(-n2cc(CNCCn3nc(C)cc3C)c(-c3ccc(F)cc3)n2)cc1 | – | inactive: 10.5%

Row | Compound | Potency | activation
49 | COc1cc2c(cc1OC)CN(CC(=O)Nc1ccc(C)c(C)c1)CC2 | inconclusive: 5.01 µM [activator, single point] | –
50 | CN1CCN(c2ccc(NC(=O)c3ccc(C(F)(F)F)cc3)cn2)CC1 | inconclusive: 1.26 µM [activator, partial curve, poor fit] | –
51 | CCn1cc(S(=O)(=O)Nc2ccc(C)c(Cl)c2)cn1 | – | inactive: -0.164%
52 | CC(=O)c1cccc(NC(=O)CCCSc2ccccc2)c1 | – | inactive: 6.5%
53 | Cc1ccc(S(=O)(=O)n2c(C)nc3ccccc32)cc1 | inconclusive: 1 µM [activator, partial curve, poor fit] | –
54 | OC(CNC1CCCCCC1)COc1cccc2ccccc12 (stereo unspecified) | inconclusive: 3.16 µM [activator, single point] | –
55 | CCOc1ccc(NS(=O)(=O)c2ccc(NC(=O)c3ccccn3)cc2)cc1 | inconclusive: 11.2 µM [activator, partial curve, poor fit] | –
56 | COc1cccc(-c2cc(CC3(O)CCN(CCCc4ccccc4)CC3)on2)c1 | – | inactive: -49.4%
57 | Cc1ccc(/C=N/Nc2ccc3ccccc3n2)o1 | – | inactive: -10.7%
58 | CCOC(=O)c1cccc(NC(=O)N2CCOCC2)c1 | inconclusive: 5.01 µM [activator, single point] | –
59 | Clc1ccc2nc(CN3CCCc4ccccc43)cn2c1 | – | inactive: -29.2%
60 | O=C(N/N=C/c1cn(-c2ccccc2)nc1-c1cccnc1)c1cccnc1 | – | inconclusive: 6.88% [activator]
61 | O=C(Oc1ccc(Cl)cc1)c1ccc(N2CCOCC2)c([N+](=O)[O-])c1 | inconclusive: 5.01 µM [activator, single point] | –
62 | CC(=NNC(=S)N1CCCCC1)c1ccccn1 | – | inactive: -44.3%
63 | Cn1c(=O)oc2cc(S(=O)(=O)NCCC(=O)NCc3ccccc3Cl)ccc21 | inconclusive: 2 µM [activator, single point] | –
64 | S=c1[nH]nc(-c2ccncc2)n1/N=C/C=C/c1ccccc1 | – | inactive: -9.29%
65 | COc1ccc(C(=O)N[C@H](C(=O)N2CCN(c3ccccc3F)CC2)C(C)C)cc1 | inconclusive: 5.01 µM [activator, single point] | –
66 | COc1cc(OC)cc(C(=O)NNC(=S)Nc2ccc(S(N)(=O)=O)cc2)c1 | inconclusive: 0.794 µM [activator, full curve, poor fit] | –
67 | O=C(COc1cccc(Cl)c1Cl)Nc1ccc2c(c1)CCC2 | inconclusive: 1.41 µM [activator, partial curve, poor fit] | –
68 | CCCn1c(N)c(N(CCOC)C(=O)c2cccc(F)c2)c(=O)[nH]c1=O | inconclusive: 28.2 µM [activator, single point] | –
69 | COc1ccc(-c2cc(C(F)F)n3ncc(C(=O)n4ccnc4C)c3n2)cc1 | inconclusive: 2.24 µM [activator, partial curve, poor fit] | –
70 | O=C(CSc1ncc(-c2ccccc2)[nH]1)Nc1ccccc1 | inconclusive: 28.2 µM [activator, single point] | –
71 | COc1cccc(Nc2ncccc2C(=O)O)c1 | inconclusive: 28.2 µM [activator, single point] | –

A draw from above in order of length of the SMILES, smallest number first.
Row | Compound | Potency | activation
71 | COc1cccc(Nc2ncccc2C(=O)O)c1 | inconclusive: 28.2 µM [activator, single point] | –
62 | CC(=NNC(=S)N1CCCCC1)c1ccccn1 | – | inactive: -44.3%
57 | Cc1ccc(/C=N/Nc2ccc3ccccc3n2)o1 | – | inactive: -10.7%
59 | Clc1ccc2nc(CN3CCCc4ccccc43)cn2c1 | – | inactive: -29.2%
52 | CC(=O)c1cccc(NC(=O)CCCSc2ccccc2)c1 | – | inactive: 6.5%
53 | Cc1ccc(S(=O)(=O)n2c(C)nc3ccccc32)cc1 | inconclusive: 1 µM [activator, partial curve, poor fit] | –
70 | O=C(CSc1ncc(-c2ccccc2)[nH]1)Nc1ccccc1 | inconclusive: 28.2 µM [activator, single point] | –
64 | S=c1[nH]nc(-c2ccncc2)n1/N=C/C=C/c1ccccc1 | – | inactive: -9.29%
49 | COc1cc2c(cc1OC)CN(CC(=O)Nc1ccc(C)c(C)c1)CC2 | inconclusive: 5.01 µM [activator, single point] | –
50 | CN1CCN(c2ccc(NC(=O)c3ccc(C(F)(F)F)cc3)cn2)CC1 | inconclusive: 1.26 µM [activator, partial curve, poor fit] | –
60 | O=C(N/N=C/c1cn(-c2ccccc2)nc1-c1cccnc1)c1cccnc1 | – | inconclusive: 6.88% [activator]
55 | CCOc1ccc(NS(=O)(=O)c2ccc(NC(=O)c3ccccn3)cc2)cc1 | inconclusive: 11.2 µM [activator, partial curve, poor fit] | –
68 | CCCn1c(N)c(N(CCOC)C(=O)c2cccc(F)c2)c(=O)[nH]c1=O | inconclusive: 28.2 µM [activator, single point] | –
63 | Cn1c(=O)oc2cc(S(=O)(=O)NCCC(=O)NCc3ccccc3Cl)ccc21 | inconclusive: 2 µM [activator, single point] | –
61 | O=C(Oc1ccc(Cl)cc1)c1ccc(N2CCOCC2)c([N+](=O)[O-])c1 | inconclusive: 5.01 µM [activator, single point] | –
